# Data from PubChem BioAssay AID540276 (National Center for Advancing Translational Sciences (NCATS), 2011).
# Values joined by “and” are separate entries in the source; they are usually repeats but may differ in a detail not shown here. Equal entries are not always repeated. The campaign covered roughly 300,000 compounds. About 5,400 (1.8%) were called active. The shares of active, inactive and inconclusive entries below differ from those in the screen. The call rests on the fitted dose curve; tested in HEK293 cells. Where the call is inconclusive, the potency comes from a doubtful curve fit.
# Test: qHTS for inhibitors of binding or entry into cells for Marburg Virus
# Details: Marburg virus pseudotyped entry inhibition, cell reporter; series mostly up to 37.8 µM
# Potency means the concentration at half of the fitted maximal effect.
row,SMILES,Potency
1,COc1ccccc1NC(=O)Cn1c(=O)oc2cc(S(=O)(=O)NCc3ccccc3)ccc21,inactive
2,Clc1ccc2nc(-c3ccc(N4CCOCC4)cc3)c(Nc3ccccc3)n2c1,inactive
3,O=C(Cc1ccccc1[N+](=O)[O-])NCc1ccc(Cl)cc1Cl,"inconclusive: 35.5 µM [activator, single point]"
4,COc1ccc(-c2csc(NC3CCCCC3)n2)c(OC)c1,inactive
5,Cc1cc(/C=N/n2cnnc2)c(C)n1-c1ccc(OCc2ccc(F)cc2)cc1,"inconclusive: 23.1 µM [inhibitor, partial curve, poor fit]"
6,CC(C)OC(=O)Cn1nnc2c(cnn2-c2ccccc2)c1=O,inactive
7,O=S(=O)(c1ccccc1)c1nc(-c2ccco2)oc1Nc1ccccc1,inactive
8,O=S(=O)(c1ccc2nc(-c3ccccc3)[nH]c2c1)N1CCN(c2cccc(Cl)c2)CC1,"inactive and inconclusive: 1 µM [inhibitor, single point]"
9,CCOC(=O)C/C(N)=N/N(C)c1ncc(C(F)(F)F)cc1Cl,"inconclusive: 2.51 µM [inhibitor, full curve, poor fit]"
10,CCCOC(=O)c1cccc(NC(=O)CSc2nnc3cc(C)c4ccccc4n23)c1,inactive
11,CCN(CC(=O)Nc1c(F)cccc1F)C(=O)CCNC(=O)c1ccc([N+](=O)[O-])cc1,"inconclusive: 31.6 µM [activator, single point]"
12,Cc1cc(C2=NNC(=NCCc3ccccc3)SC2)c(C)n1-c1c(C)n(C)n(-c2ccccc2)c1=O,inactive
13,Cc1ccsc1C(=O)Nc1ccc(S(=O)(=O)N2CCOCC2)cc1,"inconclusive: 3.16 µM [activator, partial curve, poor fit]"
14,Fc1cccc(CN2CCN3CCCC3C2C2CCCCC2)c1 (centres undefined),"inconclusive: 17.8 µM [inhibitor, partial curve, poor fit]"
15,CCCCNC(=O)CSc1nc2ccccc2c(=O)n1CC1COc2ccccc2O1 (centres undefined),inactive
16,CCOc1ccccc1NC(=O)C(C)SCc1ccccc1 (centres undefined),"inconclusive: 2.82 µM [inhibitor, partial curve, poor fit]"
17,CCCCNC(=S)N/N=C/c1ccc(OCC(=O)Nc2c(C)cc(C)cc2C)c(OC)c1,inactive
18,CC(C)C(NS(=O)(=O)c1c(Cl)cccc1Cl)C(=O)OCC(=O)c1c[nH]c2ccccc12 (centres undefined),"inconclusive: 14.6 µM [inhibitor, single point]"
19,Cc1cc(C(=O)COC(=O)CC2Sc3ccccc3NC2=O)c(C)n1-c1ccc(Br)cc1 (centres undefined),"inconclusive: 5.62 µM [inhibitor, partial curve, poor fit]"
20,Cc1cc(C[n+]2cc(Cl)ccc2N)c2ncccc2c1,"inconclusive: 10 µM [inhibitor, partial curve, poor fit]"
21,Cc1nc(CSc2nc3[nH]ncc3c(=O)n2-c2ccccc2)cs1,"inconclusive: 35.5 µM [inhibitor, single point]"
22,Cc1ccsc1C(=O)C1CCCN(Cc2cccc(OCCO)c2)C1 (centres undefined),"inconclusive: 0.562 µM [inhibitor, full curve, poor fit]"
23,c1ccc2c(c1)[nH]c1c(N3CCC4(CC3)OCCO4)ncnc12,"inconclusive: 8.91 µM [inhibitor, partial curve, poor fit]"
24,COc1ccc(/C=C(\C#N)C(=O)NC(C)c2ccccc2)cc1O (centres undefined),inactive
25,C=CCOc1cccc(/C=N/NC(=O)C(OC)c2ccccc2)c1 (centres undefined),inactive

row,SMILES,Potency
1,O=c1c2ccccc2nc(/C=C/c2ccc3c(c2)OCO3)n1-c1ccccc1,inactive
2,CC(=O)c1ccc(NC(=O)c2sc3nc4n(c(=O)c3c2C)CCCCC4)cc1,"inconclusive: 12.6 µM [activator, single point]"
3,O=C(O)c1cc(NC(=O)c2ccc(Cl)c([N+](=O)[O-])c2)cc(C(=O)O)c1,inactive
4,COc1ccc2c(c1)NP(=S)(c1ccccc1)N2C (centres undefined),inactive
5,Cc1cc(C(=O)CSC(C)c2nc3ccccc3c(=O)[nH]2)c(C)n1C (centres undefined),inactive
6,CCCc1nc2oc(C(=O)OCC)c(N)c2c2c1COC(C)(C)C2,"inconclusive: 25.9 µM [inhibitor, single point]"
7,Cc1cc(=O)oc2cc(NC(=O)CC3(CC(=O)O)CCCC3)ccc12,"inconclusive: 5.62 µM [inhibitor, single point]"
8,CC(C)C(=O)NNC(=O)C1CC1(c1ccccc1)c1ccccc1 (centres undefined),"inconclusive: 0.631 µM [activator, single point]"
9,COc1ccc(N2CCN(c3ncccc3C#N)CC2)cc1,"inconclusive: 7.08 µM [activator, partial curve]"
10,CC(C)c1ccc(OCC(=O)N(c2ccccn2)C2CCCCC2)cc1,"inconclusive: 20 µM [inhibitor, single point]"
11,Cc1ccc(OCCN2CCN(c3nc(NCc4ccco4)c4ccccc4n3)CC2)cc1,"inconclusive: 10 µM [inhibitor, partial curve, poor fit]"
12,CCOC(=O)N1CCN(C(=O)CCc2c(C)nc3c(c(C)nn3-c3ccc(C)c(C)c3)c2C)CC1,"inactive and inconclusive: 1.16 µM [inhibitor, single point]"
13,Cc1ccc(-c2nnc(N3CCCCCC3)c3ccccc23)cc1,"inconclusive: 3.55 µM [inhibitor, single point]"
14,CCCNC(=O)c1ccc2c(c1)ncn2-c1cc(C)cc(C)c1,"inconclusive: 25.1 µM [inhibitor, single point]"
15,Cc1cc2c(cc1C)N(C(=O)CCl)CCN2C(=O)CCl,"inconclusive: 12.6 µM [inhibitor, partial curve, poor fit]"
16,Cc1cccc(OCCn2nc(C(=O)O)c3ccccc3c2=O)c1,inactive
17,CN(C)c1ccc(NC(=O)CSc2nc(C3CC3)nc3ccccc23)cc1,"inconclusive: 3.55 µM [inhibitor, single point]"
18,COc1cc(C2CC(=O)c3cnc(N4CCN(Cc5ccccc5)CC4)nc3C2)cc(OC)c1OC (centres undefined),"inconclusive: 7.3 µM [inhibitor, partial curve, poor fit]"
19,COc1ccc2c(c1)-c1c(sn(-c3ccccc3)c1=S)C(C)(C)N2,inactive
20,COc1ccc(S(=O)(=O)N/N=C(/C)c2ccc(Cl)cc2)cc1,inactive
21,CCCCCCN[C@H]1CCC2C3CC=C4C[C@@H](O)CC[C@]4(C)C3CC[C@@]21C (some centres undefined),"inconclusive: 10 µM [inhibitor, partial curve, poor fit]"
22,Cc1ccc(-n2[nH]c(C)c(C=NCc3ccncc3)c2=O)cc1,"inconclusive: 3.16 µM [activator, full curve]"
23,CCOc1c(CNCCSc2nnnn2C)cccc1OC,inactive
24,CCOc1cc(CNc2ccc(N3CCOCC3)cc2)cc(Br)c1OCC,inactive
25,CC1OC2(C)OC(=N)C1(C#N)C(C#N)(C#N)C2c1ccccc1 (centres undefined),"inconclusive: 5.62 µM [activator, single point]"

row,SMILES,Potency
1,CCNC(=S)N/N=C/c1cccs1,inactive
2,CCOC(=O)c1ccc(NC(=O)Nc2ccc(F)cc2)cc1,inactive
3,Oc1cc(O)c2c(c1)OC(c1ccc(O)c(O)c1)C(O)C2 (centres undefined),"inconclusive: 12.5 µM [activator, single point]"
4,Cc1ccc(N2C(=O)c3ccccc3C2C(=O)c2ccc(C)c(C)c2O)cc1 (centres undefined),inactive
5,CSc1nnc(NC(=O)c2cc(=O)c3cc(C)c(C)cc3o2)s1,inactive
6,O=C(NCc1ccncc1)/C(=N/O)c1ccccc1,inactive
7,CCOc1cccc(C(=O)Nc2ccccc2C(=O)N2CCOCC2)c1,inactive
8,CCCCN(CC)C(=O)c1ccc2c(c1)NC(=O)c1ccccc1S2,"inconclusive: 3.16 µM [inhibitor, single point]"
9,COc1ccc(OCC(=O)NC(CC(=O)O)c2ccc(OC)c(OC)c2)cc1 (centres undefined),inactive
10,Cc1ccc2nc(NC(=O)CCCc3nc4ccccc4s3)sc2c1,"inconclusive: 4.47 µM [activator, full curve]"
11,O=C(Nc1ccc(F)c(F)c1)c1cc(S(=O)(=O)N2CCN(c3ccccn3)CC2)ccc1F,"inconclusive: 29.1 µM [inhibitor, single point]"
12,COc1ccc(C2=CC(c3c(C)nn(-c4ccccc4)c3Cl)n3nnnc3N2)cc1OC (centres undefined),"inconclusive: 35.5 µM [inhibitor, single point]"
13,O=C(OCC(=O)N(Cc1ccccc1)Cc1ccccc1)c1ccccc1NCCO,"inconclusive: 35.5 µM [inhibitor, single point]"
14,Clc1cccc(NCc2cn3cccnc3n2)c1,inactive
15,CN1CCN(S(=O)(=O)c2ccccc2)CC1,inactive
16,CCc1ccc(CN2CCN(C(=O)Cc3ccccc3)CC2)cc1,inactive
17,CC(C)C(=O)NC(c1cccc([N+](=O)[O-])c1)c1c(O)ccc2ccccc12 (centres undefined),inactive
18,COc1ccc(CCN2CC(C(=O)N(C)CC(=O)Nc3ccc(Cl)c(C(F)(F)F)c3)CC2=O)cc1OC (centres undefined),"inconclusive: 15.8 µM [inhibitor, partial curve, poor fit]"
19,COc1ccc(OC)c(C2C(C(=O)Nc3cccnc3)=C(C)NC3=C2C(=O)CCC3)c1 (centres undefined),inactive
20,CCCn1cc(CN2CCC(n3nccc3NC(=O)c3ccccc3)CC2)c(C)n1,inactive
21,COc1ccc(NC(=O)c2c(C)noc2-c2snnc2C)cc1,active: 10 µM
22,CCc1ccc(-c2nnn(Cc3nc4ccccc4s3)n2)cc1,"inconclusive: 32.6 µM [activator, single point]"
23,COc1ccc(NC(=O)CSCc2ccccc2C)cc1,inactive
24,O=C(Nc1ccc2ccccc2c1)c1cnccn1,"inconclusive: 7.3 µM [inhibitor, partial curve, poor fit]"

# Reformatted bar-delimited: entries from further up
row | SMILES | Potency
2 | CCOC(=O)c1ccc(NC(=O)Nc2ccc(F)cc2)cc1 | inactive
3 | Oc1cc(O)c2c(c1)OC(c1ccc(O)c(O)c1)C(O)C2 (centres undefined) | inconclusive: 12.5 µM [activator, single point]
4 | Cc1ccc(N2C(=O)c3ccccc3C2C(=O)c2ccc(C)c(C)c2O)cc1 (centres undefined) | inactive
